Results: publication PMC11758954
The exact form of at least one protein or probe is not confirmed. At least one result comes from cells or an extract, where the contact may be indirect. For some assays here: Negatives hold for the conditions tested. For some assays here: Where a protein sequence is shown, tags need not be part of it.

Chains of the proteins cited; added tags and fusions are not shown. Chains listed by the source or under a name are the forms on record and can include a tag or linker.
FXRα1 + mouse RXRα, one chain, as listed by the source: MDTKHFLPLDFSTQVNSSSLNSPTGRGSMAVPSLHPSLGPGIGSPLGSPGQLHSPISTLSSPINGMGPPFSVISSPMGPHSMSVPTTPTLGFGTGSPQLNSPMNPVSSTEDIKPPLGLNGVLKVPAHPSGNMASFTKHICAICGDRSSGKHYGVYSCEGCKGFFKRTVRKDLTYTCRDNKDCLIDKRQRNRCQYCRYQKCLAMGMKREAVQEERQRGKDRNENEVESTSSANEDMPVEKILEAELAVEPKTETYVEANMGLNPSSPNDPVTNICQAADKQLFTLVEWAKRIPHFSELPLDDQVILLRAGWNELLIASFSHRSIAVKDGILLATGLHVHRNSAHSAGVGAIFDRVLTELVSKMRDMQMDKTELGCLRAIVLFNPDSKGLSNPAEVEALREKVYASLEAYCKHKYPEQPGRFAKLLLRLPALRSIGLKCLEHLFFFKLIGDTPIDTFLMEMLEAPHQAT

What was measured:
Experiment in all cases: EMSA
FXRα1 + mouse RXRα = settings: HeLa nuclear extract, RXRα co-expressed, band stronger than FXRα1 alone; 5 µg nuclear extract, 1 µg poly(dI-dC), EMSA buffer (composition not given), 30 min at 4 °C; 6% native PAGE in 0.5x TBE pH 8.3; protein in a lysate after overexpression; protein details: Flag and HA epitopes (pcDNA3.2); label: 32P
[1] = tested on: T1, FXRαse5 (exon 5-skipped FXRα) (Homo sapiens); settings: 5 µg nuclear extract, 1 µg poly(dI-dC), EMSA buffer (composition not given), 30 min at 4 °C, 6% native PAGE in 0.5x TBE pH 8.3, protein in a lysate after overexpression, protein details: Flag and HA epitopes (pcDNA3.2), label: 32P
T1 sequence (looked up, limits assumed): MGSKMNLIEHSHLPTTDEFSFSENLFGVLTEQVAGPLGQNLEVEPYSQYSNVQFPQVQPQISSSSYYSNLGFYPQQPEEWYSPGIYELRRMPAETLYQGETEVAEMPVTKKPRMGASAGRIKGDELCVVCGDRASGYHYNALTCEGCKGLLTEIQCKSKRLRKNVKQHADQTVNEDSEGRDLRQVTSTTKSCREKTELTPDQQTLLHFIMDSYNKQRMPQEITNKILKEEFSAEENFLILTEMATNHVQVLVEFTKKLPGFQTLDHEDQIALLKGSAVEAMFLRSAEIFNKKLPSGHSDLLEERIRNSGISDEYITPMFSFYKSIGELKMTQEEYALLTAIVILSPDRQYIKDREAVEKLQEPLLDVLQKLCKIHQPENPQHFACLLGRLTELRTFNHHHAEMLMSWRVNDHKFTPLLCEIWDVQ

[2] = tested on: FXRαse5 (exon 5-skipped FXRα) + mouse RXRα; settings: HeLa nuclear extract, RXRα co-expressed; 5 µg nuclear extract, 1 µg poly(dI-dC), EMSA buffer (composition not given), 30 min at 4 °C; 6% native PAGE in 0.5x TBE pH 8.3; protein in a lysate after overexpression; protein details: Flag and HA epitopes (pcDNA3.2); label: 32P

GATGGGCCAAGGTCAATGACCTCGGGG (double strand) [IR-1 consensus FXRE]
binding result (FXRα1 + mouse RXRα): binds
binding result ([1]; HeLa nuclear extract, no co-transfected RXRα): no binding
binding result ([1]; HepG2 nuclear extract, increasing FXRαse5 plasmid did not enhance or change the endogenous FXRα complex): no binding
binding result ([1]; cytoplasmic extract of HeLa): no binding
binding result [2]: no binding
